These are yes or no findings as the source states them, for the method shown. In cells and extracts the contact can be indirect. Here binding means that the protein was enriched with, or labelled near, the bait; the list need not be complete. Where a sequence is shown, tags or fusion partners need not be part of it.
T1: Drosophila Top3β::eGFP (wild-type Topoisomerase 3β fused to eGFP) (Drosophila melanogaster) (UniProt O96651)
T1 sequence: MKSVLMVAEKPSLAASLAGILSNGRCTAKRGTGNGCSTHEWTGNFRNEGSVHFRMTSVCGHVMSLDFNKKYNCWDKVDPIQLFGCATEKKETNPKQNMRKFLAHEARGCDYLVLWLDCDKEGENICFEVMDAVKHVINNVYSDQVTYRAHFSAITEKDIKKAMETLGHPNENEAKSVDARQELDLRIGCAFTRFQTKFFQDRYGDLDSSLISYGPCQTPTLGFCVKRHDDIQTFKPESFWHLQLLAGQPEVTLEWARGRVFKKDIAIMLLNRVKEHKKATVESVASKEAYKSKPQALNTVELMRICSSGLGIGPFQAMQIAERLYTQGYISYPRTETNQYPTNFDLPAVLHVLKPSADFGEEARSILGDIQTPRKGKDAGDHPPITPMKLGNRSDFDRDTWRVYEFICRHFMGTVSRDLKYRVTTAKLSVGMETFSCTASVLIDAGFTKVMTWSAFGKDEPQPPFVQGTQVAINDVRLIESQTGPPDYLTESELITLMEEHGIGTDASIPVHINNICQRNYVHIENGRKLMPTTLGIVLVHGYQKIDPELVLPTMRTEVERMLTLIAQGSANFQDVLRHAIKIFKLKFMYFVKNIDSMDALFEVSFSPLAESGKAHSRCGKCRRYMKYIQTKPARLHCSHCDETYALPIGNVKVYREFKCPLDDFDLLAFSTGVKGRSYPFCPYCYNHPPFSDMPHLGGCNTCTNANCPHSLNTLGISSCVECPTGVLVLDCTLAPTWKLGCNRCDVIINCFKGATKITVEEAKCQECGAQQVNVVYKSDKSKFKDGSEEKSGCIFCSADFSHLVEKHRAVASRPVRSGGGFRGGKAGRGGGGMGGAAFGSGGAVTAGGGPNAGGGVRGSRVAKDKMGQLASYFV

Amino acid sequences for entries named in this document (tags omitted).
UniProt P21187: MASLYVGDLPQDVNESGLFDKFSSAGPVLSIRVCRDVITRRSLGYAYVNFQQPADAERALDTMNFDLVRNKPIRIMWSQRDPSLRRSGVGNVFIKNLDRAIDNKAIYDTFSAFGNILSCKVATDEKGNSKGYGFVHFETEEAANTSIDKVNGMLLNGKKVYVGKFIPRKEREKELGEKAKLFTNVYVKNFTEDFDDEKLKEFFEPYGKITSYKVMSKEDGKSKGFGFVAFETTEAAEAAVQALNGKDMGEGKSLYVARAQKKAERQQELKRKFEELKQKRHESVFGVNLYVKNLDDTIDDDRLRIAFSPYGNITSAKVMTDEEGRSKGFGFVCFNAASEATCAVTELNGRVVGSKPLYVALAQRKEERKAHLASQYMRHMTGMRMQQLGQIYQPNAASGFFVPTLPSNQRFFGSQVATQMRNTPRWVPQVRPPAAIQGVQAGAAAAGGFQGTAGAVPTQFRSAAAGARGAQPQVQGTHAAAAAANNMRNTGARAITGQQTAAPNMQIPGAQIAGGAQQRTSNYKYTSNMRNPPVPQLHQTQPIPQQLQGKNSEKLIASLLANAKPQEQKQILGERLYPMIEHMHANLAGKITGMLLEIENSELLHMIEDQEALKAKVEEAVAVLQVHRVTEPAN


Biological target: T1, Drosophila Top3β::eGFP (wild-type Topoisomerase 3β fused to eGFP) (Drosophila melanogaster)
Assay: affinity purification with mass spectrometry

Molecule | binding
Cup (protein, UniProt Q9VMA3 1-1117) MQMAEAEQENGAGALKIATNAGATDRPAHQQLPLPVEDQQDEVLTPAEKGKFEYPPPPPPPTPVQAPLATKATALNASQEHDDDEANSEKWEDPCAPPPPPPLPTSAFLATGLGYLKLPAFKLKDALEKAITKLEANKRTLKASPESSRSIKNKNVVALEMLPRRSNPETIGDGSMLASTSTAVMLQTKKPAVIVEMERRCKIINLLAKQNQILESISGEAIPMHGPSKHLHEDEGLTLQVLSARASTPYTQPSSMLSCTAVSCDLEHDSPRKQVASKEAVPEQQSSQVQQKRPPSTGIHKPGSLRAPKAVRPTTAPVVSSKPVKSYTRSRLMDIRNGMFNALMHRSKESFVMPRIATCDDIELEGRLRRMNIWRTSDGTRFRTRSTTANLNMNNNNNNECMPAFFKNKNKPNLISDESIIQSQPPQPQTEFQDPAIVNQRRIGSGRLNHSKWGYNDEDYHSYHNGKSQHMEEVNSKNSKNMTVLQFFDNGEISSQPQRRPNTPVMGMSINRSENDTLHSNESSEDLSRANENYVKRVMSGFLVVSKPKSRDVEDRHHRRYRNQNEEPEWFSCGPTSRLDTIELCGFDEDEEKMLKEGNKNHGLGETERETSKQKMDHKYKWTHAEPMGRSKYMPKHDTNNNHNVENMNNVMATEHQQQKEEKRPGSGRSFQFDKFNQSQQNYESSSYVNHQQPPQTQPQQMQQQSNTNTNNSKFMSFFANEGNSSSSSLNEFFKQAINQGHGNNPEQPKSLGHIGQMPSVDQLEAKWRRNSLNNVGETANKQTDNFQKLIGSLSSAKPQSQAVGYDAISNFIMQQQQYQQQQQKQHLIIQQQQQHTAFLASLQLKAILGRADTQLLLLRLTKGEISKHGLLVQLANPRLTDMDREAITAVLQFTNTQQQQQQHKQQLDMLSSTVIASQLQNLHNLAIVQQTLAARQQPQHNPQTQAPHQLSQEDLQAHANVIMRNAVMKRKIEEQTSKLINGGAKHQAQQQYLNRGQQRQARPDANSNALLHALISGGGNNHASGYPMNGQPQKHHSNLRFGDNQNFQSFESNQPHFATQYKQQYQQSQQQHPHQQPQQLNSLHQNNAGAVNSFNKAQMQAQSAISMLPNSGDEFH | binds
Me31B (protein, UniProt P23128 1-459) MMTEKLNSGHTNLTSKGIINDLQIAGNTSDDMGWKSKLKLPPKDNRFKTTDVTDTRGNEFEEFCLKRELLMGIFEKGWERPSPIQEAAIPIALSGKDVLARAKNGTGKTGAYCIPVLEQIDPTKDYIQALVMVPTRELALQTSQICIELAKHLDIRVMVTTGGTILKDDILRIYQKVQLIIATPGRILDLMDKKVADMSHCRILVLDEADKLLSLDFQGMLDHVILKLPKDPQILLFSATFPLTVKNFMEKHLREPYEINLMEELTLKGVTQYYAFVQERQKVHCLNTLFSKLQINQSIIFCNSTQRVELLAKKITELGYCCYYIHAKMAQAHRNRVFHDFRQGLCRNLVCSDLFTRGIDVQAVNVVINFDFPRMAETYLHRIGRSGRFGHLGIAINLITYEDRFDLHRIEKELGTEIKPIPKVIDPALYVANVGASVGDTCNNSDLNNSANEEGNVSK | binds

Second part, the molecule after the results:

binding | Molecule
binds | pAbp (from UniProt P21187 1-634)
binds | eIF4E1 (protein, UniProt P48598 1-259) MQSDFHRMKNFANPKSMFKTSAPSTEQGRPEPPTSAAAPAEAKDVKPKEDPQETGEPAGNTATTTAPAGDDAVRTEHLYKHPLMNVWTLWYLENDRSKSWEDMQNEITSFDTVEDFWSLYNHIKPPSEIKLGSDYSLFKKNIRPMWEDAANKQGGRWVITLNKSSKTDLDNLWLDVLLCLIGEAFDHSDQICGAVINIRGKSNKISIWTADGNNEEAALEIGHKLRDALRLGRNNSLQYQLHKDTMVKQGSNVKSIYTL
